# Values joined by “and” are separate entries in the source; they are usually repeats but may differ in a detail not shown here. Equal values may be shown once. Where a name gives a salt, the structure may show the parent alone. ± gives the standard deviation of the averaged measurements. The list shows a part of the results. Repeats are few or missing, and single values can be far off.
# Tested on: RAW 264.7
# Assay: HMGB1-induced TNF-alpha production relative to HMGB1-stimulated control; higher = more TNF-alpha secretion (less inhibition)
# Conditions: stimulus: HMGB1 5 ug/ml, 18 h
# [1] = compound concentration: 1 ug/ml
Compound,HMGB1-induced TNF-alpha production (compound concentration: 3 uM),HMGB1-induced TNF-alpha production [1] [%]
CC(C)(C)C(O)/C=C/c1ccc2c(c1)OCO2 (centres undefined) [Stiripentol],97.8%,
CCN(CCCc1ccccc1)CCCc1ccccc1,80.2%,
CCN(CCCc1ccccc1)CCCc1ccccc1 [Alverine citrate salt],94.5%,
CCCCC(CC)COC(=O)c1ccccc1O (centres undefined),87.7%,
CC(=O)[C@H]1CC[C@H]2[C@@H]3CC=C4C[C@@H](OC(=O)CCC(=O)O)CC[C@]4(C)[C@H]3CC[C@]12C,73%,
CC(CCc1ccc(O)cc1)NCC(O)c1ccc(O)cc1 (centres undefined) [Ractopamine],68.4%,
O=P(O)(O)C(O)(Cc1cccnc1)P(=O)(O)O [Risedronic acid],80.8%,
O=P(O)(O)C(O)(Cc1cccnc1)P(=O)(O)O,81.9%,
N[C@@H](Cc1ccc(F)cc1)C(=O)O [p-Fluoro-L-phenylalanine],68.7%,
Nc1nccc2c1ncn2[C@@H]1O[C@H](CO)[C@@H](O)[C@H]1O [3-deazaadenosine],85.6%,
O=C(O)c1cc(O)c(O)c(O)c1,85.2%,
CCN(CC)C(=O)N1CCN(C)CC1,80.8%,
CCN(CC)C(=O)N1CCN(C)CC1 [Diethylcarbamazine citrate],57%,
CCCCC#Cc1nc(NC)c2ncn([C@@H]3O[C@H](CO)[C@@H](O)[C@H]3O)c2n1,94%,
CC(C)=CCC/C(C)=C/COc1ccc2ccc(=O)oc2c1,91.8%,
C=CC[N@@+]12CC[C@@]34c5ccccc5N5/C=C6/[C@H]7C[C@H]8[C@@]9(CC[N@@+]8(CC=C)C/C7=C/CO)c7ccccc7N(/C=C(/[C@@H](C[C@@H]31)/C(=C\CO)C2)[C@H]54)[C@@H]69 [Alcuronium chloride],116%,
COc1cc(CC(=O)O)ccc1O [4-Hydroxy-3-methoxyphenylacetic acid],116%,
CN1CCC[C@H]1c1cccnc1 [(-)-Nicotine hydrogen tartrate salt],108%,
CN1CCC[C@H]1c1cccnc1,99.9%,
CN1CCC[C@H]1c1cccnc1 [Nicotine],,76.9
CCC1=C[C@H]2CN(C1)Cc1c([nH]c3ccccc13)[C@@](C(=O)OC)(c1cc3c(cc1OC)N(C)[C@H]1[C@@](O)(C(=O)OC)[C@H](OC(C)=O)[C@]4(CC)C=CCN5CC[C@]31[C@@H]54)C2,112%,
CCCC(C(=O)OCCN(CC)CC)(c1ccccc1)c1ccccc1,90.8%,
CCCC(C(=O)OCCN(CC)CC)(c1ccccc1)c1ccccc1 [Proadifen hydrochloride],86%,
CCCC(C(=O)OCCN(CC)CC)(c1ccccc1)c1ccccc1 [SKF-525A hydrochloride],114%,
Clc1ccc(COC(Cn2ccnc2)c2ccc(Cl)cc2Cl)cc1 (centres undefined),70.9%,
Clc1ccc(COC(Cn2ccnc2)c2ccc(Cl)cc2Cl)cc1 (centres undefined) [Econazole nitrate],64.1%,
NC(=O)NO [Hydroxyurea],68.9%,

Compound,HMGB1-induced TNF-alpha production (compound concentration: 3 uM),HMGB1-induced TNF-alpha production [1] [%]
NC(=O)NO,100 ± 8%,
Clc1ccccc1C(c1ccccc1)(c1ccccc1)n1ccnc1,72.2 ± 18%,
Clc1ccccc1C(c1ccccc1)(c1ccccc1)n1ccnc1 [Clotrimazole],67.9 ± 12%,
CCNc1nc2c(ncn2[C@H]2C[C@H](O)[C@@H](CO)O2)c(=O)[nH]1 [N2-Ethyl-2'-deoxyguanosine],91.4%,
CO/N=C1\CN(c2nc3c(cc2F)c(=O)c(C(=O)O)cn3C2CC2)CC1CN (centres undefined),74.7%,
COc1cc2ccc(=O)oc2cc1OC1OC(COC2OC(C)C(OC(C)=O)C(OC(C)=O)C2OC(C)=O)C(OC(C)=O)C(OC(C)=O)C1OC(C)=O (centres undefined) [Haploperoside C Acetate],,69.8
NC(=O)C1(N2CCCCC2)CCN(CCCC(=O)c2ccc(F)cc2)CC1,87.6%,
CNC1(C)C2CCC(C2)C1(C)C (centres undefined),92.6%,
CNC1(C)C2CCC(C2)C1(C)C (centres undefined) [Mecamylamine hydrochloride],112 ± 2.1%,
CNC1(C)C2CCC(C2)C1(C)C (centres undefined) [Mecamylamine],113%,
CCCCCCCCCCCCCCCC[N+](C)(C)C,68.9%,
COC1C=COC2(C)Oc3c(C)c(O)c4c(O)c(c(C=O)c(O)c4c3C2=O)NC(=O)C(C)=CC=CC(C)C(O)C(C)C(O)C(C)C(OC(C)=O)C1C (centres undefined) [3-formyl Rifamycin SV],,62.9
CC(=C(CCO)SSCC1CCCO1)N(C=O)Cc1cnc(C)nc1N (stereo in doubt) [Fursultiamine Hydrochloride],98.2%,
C[C@@H]1CC2C3C[C@H](F)C4=CC(=O)C=C[C@]4(C)[C@@]3(F)[C@@H](O)C[C@]2(C)[C@@]1(O)C(=O)COC(=O)C(C)(C)C (some centres undefined),37.6%,
CCC(C)(CN(C)C)OC(=O)c1ccccc1 (centres undefined) [Amyleine hydrochloride],57.2%,
C=C(NC(=O)C(=C)NC(=O)c1csc(C2=N[C@@H]3c4csc(n4)[C@H]4NC(=O)c5csc(n5)[C@H]([C@](C)(O)[C@@H](C)O)NC(=O)[C@H]5CSC(=N5)/C(=C/C)NC(=O)[C@H]([C@@H](C)O)NC(=O)c5csc(n5)[C@]3(CC2)NC(=O)[C@H](C)NC(=O)C(=C)NC(=O)[C@H](C)NC(=O)[C@H]([C@@H](C)CC)N[C@@H]2C=Cc3c([C@H](C)O)cc(nc3[C@H]2O)C(=O)O[C@@H]4C)n1)C(N)=O [Thiostrepton],54.2%,
Cn1c(=O)c2c(ncn2CC(O)CO)n(C)c1=O (centres undefined),104%,
Cn1c(=O)c2c(ncn2CC(O)CO)n(C)c1=O (centres undefined) [Diprophylline],75.7%,
CCCc1nc(C(C)(C)O)c(C(=O)OCc2oc(=O)oc2C)n1Cc1ccc(-c2ccccc2-c2nnn[nH]2)cc1,105 ± 3.9%,
NCCC(=O)N[C@@H](Cc1cnc[nH]1)C(=O)O [L-Carnosine],,72.6
NC(=O)c1cccnc1,84.5% and 101%,
NC(=O)c1cccnc1 [Nicotinamide],126%,
Nc1nccs1,97.8%,
CC(C)(Oc1ccc(C2CC2(Cl)Cl)cc1)C(=O)O (centres undefined) [Ciprofibrate],100 ± 38%,
O=C(O)CCC/C=C\C[C@@H]1[C@@H](/C=C/[C@H](O)C2Cc3ccccc3C2)[C@@H](F)C[C@@H]1O,101%,
CC1=C(C(=O)O)N2C(=O)[C@@H](NC(=O)[C@H](N)c3ccc(O)cc3)[C@H]2SC1,86%,
CC1=C(C(=O)O)N2C(=O)[C@@H](NC(=O)[C@H](N)c3ccc(O)cc3)[C@H]2SC1 [Cefadroxil],79.5%,

# For convenience, part of the list above.
Compound,HMGB1-induced TNF-alpha production (compound concentration: 3 uM),HMGB1-induced TNF-alpha production [1] [%]
CNC1(C)C2CCC(C2)C1(C)C (centres undefined),92.6%,
CNC1(C)C2CCC(C2)C1(C)C (centres undefined) [Mecamylamine hydrochloride],112 ± 2.1%,
CNC1(C)C2CCC(C2)C1(C)C (centres undefined) [Mecamylamine],113%,
